Measurements taken from publication PMC9587286.
Results are given in words; binding and its absence hold for the method and conditions named. In cells and extracts the contact can be indirect. Some results given as binding are weak or reduced against the parent protein; the word gives no strength. For part of these data: Tags and fused reporters may be left off the sequences shown. One block for each molecule: values may come before it.

The chains behind the UniProt entries cited, without tags or fusion partners. Where a name states a change or a piece, a line headed by the entry shows the natural chain unless it says otherwise.
UniProt Q9UBN7: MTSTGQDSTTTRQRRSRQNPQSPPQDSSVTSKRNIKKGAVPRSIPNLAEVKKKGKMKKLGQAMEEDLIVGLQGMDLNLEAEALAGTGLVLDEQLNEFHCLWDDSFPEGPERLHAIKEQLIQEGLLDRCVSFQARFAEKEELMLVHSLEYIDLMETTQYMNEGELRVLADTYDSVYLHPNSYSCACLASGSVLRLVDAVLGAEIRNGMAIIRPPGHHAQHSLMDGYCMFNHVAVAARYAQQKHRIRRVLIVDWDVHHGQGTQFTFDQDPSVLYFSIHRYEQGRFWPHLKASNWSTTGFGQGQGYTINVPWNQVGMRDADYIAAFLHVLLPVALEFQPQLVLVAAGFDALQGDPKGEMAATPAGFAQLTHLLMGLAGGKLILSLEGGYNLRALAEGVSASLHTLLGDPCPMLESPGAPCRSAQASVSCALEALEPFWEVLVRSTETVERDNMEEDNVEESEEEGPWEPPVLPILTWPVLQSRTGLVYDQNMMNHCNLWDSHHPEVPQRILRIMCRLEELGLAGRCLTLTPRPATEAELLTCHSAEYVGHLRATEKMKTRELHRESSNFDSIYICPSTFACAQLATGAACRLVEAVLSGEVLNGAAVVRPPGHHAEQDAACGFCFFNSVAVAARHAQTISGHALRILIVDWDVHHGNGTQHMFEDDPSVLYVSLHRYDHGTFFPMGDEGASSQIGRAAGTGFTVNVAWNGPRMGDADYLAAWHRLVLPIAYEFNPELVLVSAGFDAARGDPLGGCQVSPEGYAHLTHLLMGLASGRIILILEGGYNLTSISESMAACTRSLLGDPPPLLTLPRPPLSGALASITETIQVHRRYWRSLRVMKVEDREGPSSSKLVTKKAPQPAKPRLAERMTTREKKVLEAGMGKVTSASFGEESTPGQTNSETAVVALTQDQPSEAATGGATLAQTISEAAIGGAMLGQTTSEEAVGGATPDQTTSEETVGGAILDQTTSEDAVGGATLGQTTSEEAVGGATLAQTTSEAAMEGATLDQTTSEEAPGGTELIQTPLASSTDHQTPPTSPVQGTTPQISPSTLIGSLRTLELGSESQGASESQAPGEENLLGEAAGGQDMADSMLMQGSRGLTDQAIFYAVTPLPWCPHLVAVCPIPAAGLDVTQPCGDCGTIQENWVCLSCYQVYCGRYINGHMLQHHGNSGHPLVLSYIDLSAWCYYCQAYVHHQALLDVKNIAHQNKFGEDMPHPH

Experiments:
[1] = biological target: T1, HA-TAK1 (transforming growth factor β-activated kinase 1), full length (UniProt O43318); assay: co-IP; Flag-HDAC6 and HA-TAK1 co-expressed in HEK293T cells for 48 h; 1 mg lysate protein with 2 μg antibody (anti-Flag or anti-HA) overnight at 4 °C, protein A/G beads 3 h, three washes with cold IP buffer; both directions
T1 sequence: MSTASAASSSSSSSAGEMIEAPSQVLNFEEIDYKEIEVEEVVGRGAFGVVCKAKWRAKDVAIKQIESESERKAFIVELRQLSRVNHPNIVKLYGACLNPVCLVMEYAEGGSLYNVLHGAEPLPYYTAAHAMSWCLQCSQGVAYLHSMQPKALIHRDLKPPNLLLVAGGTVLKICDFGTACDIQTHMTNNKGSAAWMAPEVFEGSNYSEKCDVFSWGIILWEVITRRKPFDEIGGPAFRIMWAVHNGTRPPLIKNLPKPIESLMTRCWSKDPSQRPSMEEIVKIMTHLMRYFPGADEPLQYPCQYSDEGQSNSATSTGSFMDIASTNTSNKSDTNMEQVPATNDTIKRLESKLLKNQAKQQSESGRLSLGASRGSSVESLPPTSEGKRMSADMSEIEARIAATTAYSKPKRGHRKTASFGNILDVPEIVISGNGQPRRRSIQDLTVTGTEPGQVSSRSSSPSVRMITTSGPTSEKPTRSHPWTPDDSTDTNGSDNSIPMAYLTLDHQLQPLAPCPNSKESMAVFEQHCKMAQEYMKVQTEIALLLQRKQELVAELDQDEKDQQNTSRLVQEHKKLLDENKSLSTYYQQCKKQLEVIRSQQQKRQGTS

[2] = biological target: T1, HA-TAK1 (transforming growth factor β-activated kinase 1), full length; assay: co-IP; constructs expressing full-length and truncated HDAC6 and TAK1 in transfected cells; cell line not stated for this experiment
[3] = biological target: T2, TAK1, endogenous in HCT116 cells (human (endogenous in HCT116)) (UniProt O43318); assay: co-IP; endogenous TAK1 and HDAC6 in HCT116 cells, immunoprecipitation in both directions
T2 sequence: T1 sequence

[4] = biological target: Flag-tagged HDAC6 (histone deacetylase 6), full length (UniProt Q9UBN7); assay: co-IP; Flag-HDAC6 and HA-TAK1 co-expressed in HEK293T cells for 48 h; 1 mg lysate protein with 2 μg antibody (anti-Flag or anti-HA) overnight at 4 °C, protein A/G beads 3 h, three washes with cold IP buffer; both directions
[5] = biological target: HDAC6, endogenous in HCT116 cells (human (endogenous in HCT116)) (UniProt Q9UBN7); assay: co-IP; endogenous TAK1 and HDAC6 in HCT116 cells, immunoprecipitation in both directions
[6] = biological target: Flag-tagged HDAC6 (histone deacetylase 6), full length (UniProt Q9UBN7); assay: co-IP; constructs expressing full-length and truncated HDAC6 and TAK1 in transfected cells; cell line not stated for this experiment

Molecule: HDAC6, endogenous in HCT116 cells (from UniProt Q9UBN7 1-1215) (enzyme)
- binding [3]: binds

B1: HA-TAK1 (transforming growth factor β-activated kinase 1), full length (enzyme, UniProt O43318 1-606)
chain: T1 sequence
- binding [4]: binds

B2: TAK1, endogenous in HCT116 cells (enzyme, UniProt O43318 1-606)
chain: T1 sequence
- binding [5]: binds

B3: TAK1 1-300 aa region (includes the kinase domain) (domain or fragment, UniProt O43318 1-300)
chain: MSTASAASSSSSSSAGEMIEAPSQVLNFEEIDYKEIEVEEVVGRGAFGVVCKAKWRAKDVAIKQIESESERKAFIVELRQLSRVNHPNIVKLYGACLNPVCLVMEYAEGGSLYNVLHGAEPLPYYTAAHAMSWCLQCSQGVAYLHSMQPKALIHRDLKPPNLLLVAGGTVLKICDFGTACDIQTHMTNNKGSAAWMAPEVFEGSNYSEKCDVFSWGIILWEVITRRKPFDEIGGPAFRIMWAVHNGTRPPLIKNLPKPIESLMTRCWSKDPSQRPSMEEIVKIMTHLMRYFPGADEPLQY
- binding [6]: binds

Results, then the molecule that gave them:

- binding [1]: binds
Molecule: Flag-tagged HDAC6 (histone deacetylase 6), full length (from UniProt Q9UBN7 1-1215) (enzyme)

- binding [2]: binds
Molecule: HDAC6 1-840 aa region (contains two deacetylase activity domains) (from UniProt Q9UBN7 1-840) (domain or fragment)
